In PubChem BioAssay AID1347426 (Functional Genomics Laboratory (NCATS/FGL), 2020):
Out of some 31,000 sequences screened, about 1,400 (4.5%) were called active.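 Rule for the calls: active = median seed-adjusted z-score above 1 or below -1; inactive = the rest.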 This is one part of the list.

Test: Novel Modifiers of Survival Motor Neuron (SMN) Protein: Gene Identification via Genome-wide siRNA Screen;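 note: luminescence tracks full-length SMN protein made from the SMN2 reporter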
Details: HEK293T SMN2-luciferase reporter, siRNA knockdown, 72 h; actives lie on both sides
In short: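 HEK293T cells stably expressing an SMN2 splicing/cDNA-luciferase reporter were reverse-transfected with a druggable-genome siRNA library and read by luminescence at 72 hours; hits defined by MAD score above 1.0 or below -1.0.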

Row | Sequence | median seed-adjusted z-score
1 | GGAGCACAGAAUACCGGAATT against C3orf64 | inactive: 0.0771
2 | GAGUAUAUCUCUGAAAGAATT against SAR1B | inactive: 0.693
3 | UCACUUCUAGUUUUACUUUTT against NDUFA7 | inactive: 0.356
4 | GCAAGGUAACAAAUCGGAATT against POLR3K | inactive: 0.504
5 | ACCGUAUUCCUAUAUCUCATT against FOXA3 | inactive: 0.128
6 | GAAUCACUCUUUACGCAGUTT against CCKBR | inactive: 0.314
7 | ACAUGAGGAUCACAAAUGATT against ST14 | inactive: -0.534
8 | GCUCUGUGCUCUCUAGUGATT against LEFTY1 | inactive: 0.383
9 | GCACCUAUAUUGUAAUAGATT against PTPRG | inactive: 0.0697
10 | CCUUAUACAUAAAAUCCUUTT against CD1E | inactive: -0.133
11 | CGCAGUAUGUGGACUAUGATT against NID2 | inactive: 0.283
12 | ACUGGAUUUUUAUACUAGATT against GLO1 | inactive: -0.0827
13 | CGGACAACAUGUACCGGAATT against MYO1F | inactive: 0.103
14 | GGUAGAUAUUUCUAGUACATT against BIRC6 | inactive: 0.0785
15 | CAAGAGUGAUCCAACUAAATT against PCDHA12 | inactive: 0.0761
16 | GUAUGGAUCCCUUAAUAUATT against P2RY13 | inactive: -0.0427
17 | CCAGUGUCAUCAGCGAUGATT against NUAK1 | inactive: -0.197
18 | GAAGCUGAAGGAUUAUUUATT against VPS4A | inactive: 0
19 | GGUUUUUGCCCAAGUCUCATT against ZNF324 | inactive: 0
20 | AGACUUCACAACAAGAGAATT against TIMM9 | inactive: -0.371
21 | CCAUCCGCAACAUCACAAATT against IGF2BP1 | inactive: -0.993
22 | CACGGACCUUGAGGAAUUATT against TBC1D22A | inactive: -0.00192
23 | CAGAUGUUAUGGAUAUAAUTT against L2HGDH | inactive: -0.346

Row | Sequence | median seed-adjusted z-score
24 | GUUAAUCACAUACACCAAATT against GPR22 | inactive: 0.705
25 | GUGACUGUUUAAUCGGUUATT against POLR3B | inactive: -0.151
26 | GGGAACCAUUGAUCGAAUATT against SNX30 | inactive: -0.157
27 | CGGACAAGAUUGACAGGUATT against TSPAN4 | inactive: 0.417
28 | GAAUCACGAUAGAUGAAGATT against DLD | inactive: 0.377
29 | CCUUAGCGAUUUGAUCCCATT against GALNT5 | inactive: -0.279
30 | GCAGGGACUUGAUAGACGATT against ANXA4 | inactive: -0.0932
31 | GGCUUACUAAAAAUGAACATT against UST | inactive: 0.265
32 | CCCGGGAACCCAUAACAAATT against CYP2C19 | inactive: -0.0674
33 | UGAGGACACUUCUUGGAGATT against FOXE3 | inactive: -0.451
34 | CAAGGUCACUUGGUACAUATT against CD48 | inactive: -0.0981
35 | GGAGUGCUAAUCUAUGAAATT against PRKACB | inactive: -0.258
36 | CUAACAACGUACAAAUGGATT against TRIM42 | inactive: -0.153
37 | CCAGCUCCUUAAGUACUAATT against F2RL2 | inactive: -0.216
38 | GGGCCUCAGUGGUUUCUGUTT against RELT | inactive: 0.349
39 | GGACAUUCAAUUCGACAAATT against DDX4 | inactive: -0.136
40 | GGGAUAUUUUCUACGCUUUTT against DNAH5 | inactive: -0.45
41 | CGAGUGAUGAUAAUCCGGATT against RUVBL1 | inactive: -0.834
42 | GGAUAUCAACUUAUUAGAUTT against XPO1 | active: 1.12
43 | ACCUCACUGUUCUACUACATT against SLC26A11 | inactive: -0.507
44 | GCACAUCCACCAACAGGUATT against COCH | inactive: -0.524
45 | CAAGCAUAGUGCUUAUUUUTT against FOXQ1 | inactive: 0.369
46 | GAGAGAUUUGUAUAUCGUUTT against DOCK3 | inactive: 0.51

From entry 40 up to 44, as listed above:
Row | Sequence | median seed-adjusted z-score
40 | GGGAUAUUUUCUACGCUUUTT against DNAH5 | inactive: -0.45
41 | CGAGUGAUGAUAAUCCGGATT against RUVBL1 | inactive: -0.834
42 | GGAUAUCAACUUAUUAGAUTT against XPO1 | active: 1.12
43 | ACCUCACUGUUCUACUACATT against SLC26A11 | inactive: -0.507
44 | GCACAUCCACCAACAGGUATT against COCH | inactive: -0.524

Going on with the list.

Row | Sequence | median seed-adjusted z-score
47 | GGGCAGUCAUUGGAUCUGATT against DPEP3 | inactive: 0.95
48 | GACAAGACCUUAAAUGAUUTT against ZBTB7A | inactive: -0.344
49 | GACCGGGUAUCUUCUAAUATT against SLC24A6 | inactive: -0.792
50 | AGGUGUACAGUGACGCACATT against FGFR3 | inactive: -0.133
51 | GGAUUGUCGGCAGUAGUAATT against MARCO | inactive: 0.137
52 | CAGAAAGUCAGAUCGAUAATT against KRR1 | inactive: -0.0353
53 | GCAAGUGUUUUGAUCAAAATT against ZNF662 | inactive: 0.352
54 | GCUACUCUGUCAUCUUUGATT against RCBTB2 | inactive: 0.235
55 | GGGAAGUCUUUUAAUCGUATT against ZNF780B | inactive: -0.332
56 | ACACCAAGUCUUUUGAGGATT against HRAS | inactive: -0.85
57 | UAGUCAAGGUGGAUUUUGATT against CAV3 | inactive: 0
58 | GGAAAUCCUUCAUAUACAATT against ZNF549 | inactive: 0.0114
59 | CUACGAGAAUAAUUCGGAATT against THOC1 | active: -3.04
60 | CCAACAAUUUAGUAGUUAUTT against TBP | active: -1.25
61 | AAUCAAGGCUAUCAAGUAUTT against NPSR1 | inactive: -0.314
62 | GAAAGAUUGAAGAAGUUCATT against PRMT3 | inactive: 0.00875
63 | AGCUACCGAUGGAAGAGGATT against CLK3 | active: -1.11
64 | ACUUUGCCUUCAAGCUCUATT against SERPINA13 | inactive: -0.403
65 | CAGAACUAUUCAACAAUUUTT against CD200R2 | inactive: -0.772
66 | CUACGCUACUGAUCGGAAATT against ATPAF1 | inactive: 0.393
67 | AGAGAAUUGGUGAGUUUAATT against TCF15 | inactive: -0.361
68 | GGCCGGAGAUUAUCCUCAATT against MIXL1 | inactive: -0.204
